According to paper doi:10.1101/2020.12.30.424827:
Read-outs that look alike come from different tables or passages of the source. These are yes or no findings as the source states them, for the method shown. Binding seen in cells or lysates may run through a third protein. Some binding calls cover weakened binding; strength is not graded here.

Amino acid sequences for entries named in this document (tags omitted). Residues count along the entry.
UniProt P31424, residues 21-1203: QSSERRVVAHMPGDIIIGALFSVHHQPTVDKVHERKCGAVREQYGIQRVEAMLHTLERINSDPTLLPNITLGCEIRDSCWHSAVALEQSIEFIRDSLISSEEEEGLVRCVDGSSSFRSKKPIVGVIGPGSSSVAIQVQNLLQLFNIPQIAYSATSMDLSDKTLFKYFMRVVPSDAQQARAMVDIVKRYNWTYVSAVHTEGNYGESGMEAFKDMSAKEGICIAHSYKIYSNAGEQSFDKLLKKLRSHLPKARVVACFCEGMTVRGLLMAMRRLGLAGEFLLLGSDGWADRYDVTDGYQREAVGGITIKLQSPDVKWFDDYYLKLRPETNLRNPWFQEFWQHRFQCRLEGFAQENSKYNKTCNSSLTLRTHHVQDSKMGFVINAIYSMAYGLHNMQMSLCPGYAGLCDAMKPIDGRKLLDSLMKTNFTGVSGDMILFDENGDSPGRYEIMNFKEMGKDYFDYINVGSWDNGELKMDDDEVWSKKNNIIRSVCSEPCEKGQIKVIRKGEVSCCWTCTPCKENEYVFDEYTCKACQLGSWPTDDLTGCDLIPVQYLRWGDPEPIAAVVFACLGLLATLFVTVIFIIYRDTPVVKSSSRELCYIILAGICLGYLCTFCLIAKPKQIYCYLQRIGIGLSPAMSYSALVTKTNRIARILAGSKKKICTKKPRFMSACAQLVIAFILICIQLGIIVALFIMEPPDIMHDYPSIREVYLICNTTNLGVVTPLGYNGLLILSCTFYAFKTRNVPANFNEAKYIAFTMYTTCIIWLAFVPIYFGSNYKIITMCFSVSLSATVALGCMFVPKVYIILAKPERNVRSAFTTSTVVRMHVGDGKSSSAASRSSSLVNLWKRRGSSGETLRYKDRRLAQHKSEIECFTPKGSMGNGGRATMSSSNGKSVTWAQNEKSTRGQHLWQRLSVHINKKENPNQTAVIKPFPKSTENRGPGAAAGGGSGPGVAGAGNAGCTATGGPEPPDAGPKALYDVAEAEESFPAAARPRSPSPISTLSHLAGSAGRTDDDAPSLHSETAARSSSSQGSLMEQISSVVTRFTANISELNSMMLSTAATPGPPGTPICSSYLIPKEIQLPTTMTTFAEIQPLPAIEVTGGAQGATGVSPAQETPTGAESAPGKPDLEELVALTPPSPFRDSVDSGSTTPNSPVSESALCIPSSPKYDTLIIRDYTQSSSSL

Tests used:
Assay in all cases: FRET or BRET
mGlu5-NLuc [1] = molecular target: mGlu5-NLuc (UniProt P31424)
mGlu5-NLuc [2] = molecular target: mGlu5-NLuc (UniProt P31424); remark: listed apart in the source
mGlu5-NLuc [3] = molecular target: mGlu5-NLuc (UniProt P31424); remark: listed apart in the source

Measured: binding

B1: Venus-Homer1c (protein, UniProt Q9Z214 1-366)
chain: MGEQPIFSTRAHVFQIDPNTKKNWVPTSKHAVTVSYFYDSTRNVYRIISLDGSKAIINSTITPNMTFTKTSQKFGQWADSRANTVYGLGFSSEHHLSKFAEKFQEFKEAARLAKEKSQEKMELTSTPSQESAGGDLQSPLTPESINGTDDERTPDVTQNSEPRAEPAQNALPFSHSAGDRTQGLSHASSAISKHWEAELATLKGNNAKLTAALLESTANVKQWKQQLAAYQEEAERLHKRVTELECVSSQANAVHSHKTELSQTVQELEETLKVKEEEIERLKQEIDNARELQEQRDSLTQKLQEVEIRNKDLEGQLSELEQRLEKSQSEQDAFRSNLKTLLEILDGKIFELTELRDNLAKLLECS
binds: mGlu5-NLuc [1] | mGlu5-NLuc [2] | mGlu5-NLuc [3]
